According to patent US20260199555A1, “3D PRINTING OF HIGH CELL DENSITY VASCULARIZED TISSUE” (priority 2022, published 2026):
At least one structure is not confirmed: it was looked up by name or label, or the drawing left a doubt.

Assay: Brix refractometer measurement of 5% GelMA bioink with contrast agents
Type: physicochemical
Conditions: 5% GelMA bioink, 0, 20, 30, 40, 50% w/v contrast agent
Experimental: FIGS. 14A and 14B plot the results of measurement using a Brix refractometer of 5% GelMA bioink with various concentrations (0, 20, 30, 40, 50% w/v) of the contrast agents ioversol and iohexol, respectively. For comparison, a 100% (w/v) sample of each contrast agent was also measured. Since this method measures the number of dissolved solids in a liquid based on its specific gravity, the units are in Brix %. FIGS. 14C and 14D show the Brix % data converted to refractive index.

## CC(=O)N(CC(O)CO)c1c(I)c(C(=O)NCC(O)CO)c(I)c(C(=O)NCC(O)CO)c1I (stereo not shown) [iohexol]
  tuning of bioink refractive index: can effectively tune its refractive index
